These are yes or no findings as the source states them, for the method shown.
Tests used:
[1] = biological target: full-length human ATG12 (human) (UniProt O94817); assay: SEC; purified proteins alone and mixed, Superdex 200 Increase 10/300 GL or Superdex 75 10/300 GL on an AKTA FPLC; mixture profile compared with the theoretical sum; fractions checked by SDS-PAGE; both purified
[2] = biological target: full-length human ATG5 (human) (UniProt Q9H1Y0); assay: as above

By UniProt entry, the sequences of proteins in these tests, tags left out. Where a name states a change or a piece, a line headed by the entry shows the natural chain unless it says otherwise. Chains listed by the source or under a name are the forms on record and can include a tag or linker. Residues count along the entry.
UniProt O94817: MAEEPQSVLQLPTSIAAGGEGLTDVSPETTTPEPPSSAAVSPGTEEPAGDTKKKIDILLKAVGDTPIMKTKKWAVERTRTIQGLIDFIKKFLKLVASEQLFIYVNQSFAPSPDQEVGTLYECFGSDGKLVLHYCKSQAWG
UniProt Q9H1Y0: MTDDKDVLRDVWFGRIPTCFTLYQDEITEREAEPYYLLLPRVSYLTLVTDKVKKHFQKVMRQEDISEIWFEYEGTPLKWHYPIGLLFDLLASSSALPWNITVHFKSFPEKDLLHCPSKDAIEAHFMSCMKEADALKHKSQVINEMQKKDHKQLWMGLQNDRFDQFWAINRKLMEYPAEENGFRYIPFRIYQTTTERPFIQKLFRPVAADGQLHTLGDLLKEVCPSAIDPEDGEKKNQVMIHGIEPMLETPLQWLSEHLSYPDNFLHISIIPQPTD
SUMO-tagged WIPI3^Δ (human WIPI3 residues 8–344 without residues 264–281) (Q5MNZ6, form named): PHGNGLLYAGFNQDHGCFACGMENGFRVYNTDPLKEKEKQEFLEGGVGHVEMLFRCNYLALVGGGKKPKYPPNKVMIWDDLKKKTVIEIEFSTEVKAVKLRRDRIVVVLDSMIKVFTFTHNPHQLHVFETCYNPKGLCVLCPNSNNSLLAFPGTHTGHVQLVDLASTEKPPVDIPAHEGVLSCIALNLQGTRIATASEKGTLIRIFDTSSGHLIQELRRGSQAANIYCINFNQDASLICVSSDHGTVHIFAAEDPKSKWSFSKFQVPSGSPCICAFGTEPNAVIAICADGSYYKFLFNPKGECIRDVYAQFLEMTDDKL

binding [1]: no binding | binding [2]: no binding
Substance: SUMO-tagged WIPI3^Δ (human WIPI3 residues 8–344 without residues 264–281) (from UniProt Q5MNZ6 8-344) (domain or fragment)

— paper PMC11727070
